These are yes or no findings as the source states them, for the method shown. Some results given as binding are weak or reduced against the parent protein; the word gives no strength.
Target: T1, ribonuclease L (RNase L), Q05823
T1 chain: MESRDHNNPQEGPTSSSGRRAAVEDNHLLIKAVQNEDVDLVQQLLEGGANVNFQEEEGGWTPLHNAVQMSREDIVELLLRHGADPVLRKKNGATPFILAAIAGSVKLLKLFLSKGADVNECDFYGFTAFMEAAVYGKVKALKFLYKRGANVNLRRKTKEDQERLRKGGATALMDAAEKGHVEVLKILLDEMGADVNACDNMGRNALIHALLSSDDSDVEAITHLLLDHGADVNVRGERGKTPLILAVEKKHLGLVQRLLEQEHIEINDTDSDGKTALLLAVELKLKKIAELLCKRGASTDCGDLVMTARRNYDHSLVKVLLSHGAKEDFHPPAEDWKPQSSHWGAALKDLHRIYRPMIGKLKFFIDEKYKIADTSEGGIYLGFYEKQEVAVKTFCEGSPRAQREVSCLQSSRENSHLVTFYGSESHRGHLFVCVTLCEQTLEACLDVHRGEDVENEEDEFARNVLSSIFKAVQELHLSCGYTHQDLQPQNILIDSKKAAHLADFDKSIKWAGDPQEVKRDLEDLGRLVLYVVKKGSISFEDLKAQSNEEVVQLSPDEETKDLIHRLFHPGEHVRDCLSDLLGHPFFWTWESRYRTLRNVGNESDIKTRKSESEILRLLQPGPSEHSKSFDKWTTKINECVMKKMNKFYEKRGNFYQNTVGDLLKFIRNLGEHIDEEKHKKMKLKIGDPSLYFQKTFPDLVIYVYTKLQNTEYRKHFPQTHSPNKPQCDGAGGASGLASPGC
Assay: in vitro RNase L oligomerization induced by small molecule RIBOTAC 2, read by Western blot
Details: remark: other sources report otherwise

binding: binds
B1: ribonuclease L (RNase L), Q05823 1-741 (enzyme, UniProt Q05823 1-741, looked up)
chain: MESRDHNNPQEGPTSSSGRRAAVEDNHLLIKAVQNEDVDLVQQLLEGGANVNFQEEEGGWTPLHNAVQMSREDIVELLLRHGADPVLRKKNGATPFILAAIAGSVKLLKLFLSKGADVNECDFYGFTAFMEAAVYGKVKALKFLYKRGANVNLRRKTKEDQERLRKGGATALMDAAEKGHVEVLKILLDEMGADVNACDNMGRNALIHALLSSDDSDVEAITHLLLDHGADVNVRGERGKTPLILAVEKKHLGLVQRLLEQEHIEINDTDSDGKTALLLAVELKLKKIAELLCKRGASTDCGDLVMTARRNYDHSLVKVLLSHGAKEDFHPPAEDWKPQSSHWGAALKDLHRIYRPMIGKLKFFIDEKYKIADTSEGGIYLGFYEKQEVAVKTFCEGSPRAQREVSCLQSSRENSHLVTFYGSESHRGHLFVCVTLCEQTLEACLDVHRGEDVENEEDEFARNVLSSIFKAVQELHLSCGYTHQDLQPQNILIDSKKAAHLADFDKSIKWAGDPQEVKRDLEDLGRLVLYVVKKGSISFEDLKAQSNEEVVQLSPDEETKDLIHRLFHPGEHVRDCLSDLLGHPFFWTWESRYRTLRNVGNESDIKTRKSESEILRLLQPGPSEHSKSFDKWTTKINECVMKKMNKFYEKRGNFYQNTVGDLLKFIRNLGEHIDEEKHKKMKLKIGDPSLYFQKTFPDLVIYVYTKLQNTEYRKHFPQTHSPNKPQCDGAGGASGLASPGC

Reference: patent US12702715B2, “Targeted RNA degradation allows precision repurposing of protein-targeted small molecule medicines to RNA” (University of Florida Research Foundation, Incorporated, priority 2020, dated 2026)
